The list is a part of this screen's results and no random one: it gathers some chemical classes. Not every dose and run of a compound is shown. T/C is the treated group as % of the vehicle group. Some doses have a count of surviving animals in place of a T/C: the source holds a T/C of zero for them, seemingly a mark for toxic or unscored doses. Some doses without a T/C left all or most animals alive at the check, yet need not have been tolerated: the source hardly ever lists a survival T/C far under the control, and the zero likely stands for such cases as well. Survivors were counted at the toxicity check, usually on the fifth day, unless a day is given; later deaths do not show. Schedules are NCI's codes, taken here to give the interval after Q, in days (D) or hours (H), and the number of doses after X. Some schedules carry Z or #; the key to these is not given. For survival time, the PubChem record calls one and a half times the control and up active, and a quarter to a half above the control has no call in these data; cut-offs in other NCI protocols can differ. Some entries hold several experiments; the results are listed from low to high. Some entries show no survivor count and are marked so; the dose need not have been tolerated. Some T/C values are followed by the survivors on the day toxicity was checked, most often the fifth; without a count or a note in brackets, all were alive then. Some complexes appear as separate parts, the way the source draws them; their charges need not add up.
System: L1210 leukemia ip in BDF1 mice, survival T/C
Test: NCI In Vivo Anticancer Drug Screen. Data for tumor model L1210 Leukemia (intraperitoneal) in B6D2F1 (BDF1) mice
Details: T/C endpoint: mean survival time, higher T/C = longer survival
[1] = dose: 100.0 mg/kg/injection, schedule: Q04DX003 (ip), vehicle: saline with Tween-80
[2] = dose: 200.0 mg/kg/injection, schedule: Q04DX003 (ip), vehicle: saline with Tween-80
[3] = dose: 100.0 mg/kg/injection, schedule: Q01DX009 (ip), vehicle: saline
[4] = dose: 200.0 mg/kg/injection, schedule: Q01DX009 (ip), vehicle: saline
[5] = dose: 400.0 mg/kg/injection, schedule: Q04DX003 (ip), vehicle: saline with Tween-80
[6] = dose: 40.0 mg/kg/injection, schedule: Q01DX Z (ip), vehicle: carboxymethylcellulose (CMC)
[7] = dose: 100.0 mg/kg/injection, schedule: Q01DX001 (ip), vehicle: saline
[8] = dose: 200.0 mg/kg/injection, schedule: Q01DX001 (ip), vehicle: saline
[9] = dose: 400.0 mg/kg/injection, schedule: Q01DX001 (ip), vehicle: saline
[10] = dose: 100.0 mg/kg/injection, schedule: Q04DX003 (ip), vehicle: saline
[11] = dose: 200.0 mg/kg/injection, schedule: Q04DX003 (ip), vehicle: saline
[12] = dose: 400.0 mg/kg/injection, schedule: Q04DX003 (ip), vehicle: saline
[13] = dose: 100.0 mg/kg/injection, schedule: Q01DX001 (ip), vehicle: carboxymethylcellulose (CMC)
[14] = dose: 200.0 mg/kg/injection, schedule: Q01DX001 (ip), vehicle: carboxymethylcellulose (CMC)
[15] = dose: 400.0 mg/kg/injection, schedule: Q01DX001 (ip), vehicle: carboxymethylcellulose (CMC)
[16] = dose: 400.0 mg/kg/injection, schedule: Q01DX009 (ip), vehicle: saline

With `Cc1cc([N+](=O)[O-])cc([N+](=O)[O-])c1O` the T/C (dose: 25.0 mg/kg/injection, schedule: Q01DX009 (ip), vehicle: other) was 90 % of control, the survivor count (dose: 50.0 mg/kg/injection, schedule: Q01DX009 (ip), vehicle: other) was 5 of 6 and the survivor count (dose: 50.0 mg/kg/injection, schedule: Q04DX003 (ip), vehicle: saline with Tween-80) was 0 of 6. For the same molecule, the T/C (dose: 100.0 mg/kg/injection, schedule: Q01DX009 (ip), vehicle: other) was 95 % of control [4 of 6 alive], the survivor count [1] was 0 of 6 and the survivor count [2] was 0 of 6.

For `O=C(Nc1cc(F)c([N+](=O)[O-])cc1[N+](=O)[O-])c1cc([N+](=O)[O-])cc([N+](=O)[O-])c1`, the T/C (dose: 6.25 mg/kg/injection, schedule: Q01DX009 (ip), vehicle: Klucel (hydroxypropylcellulose) (HPC)) was 98 % of control, the T/C (dose: 12.5 mg/kg/injection, schedule: Q01DX009 (ip), vehicle: Klucel (hydroxypropylcellulose) (HPC)) was 99 % of control and the T/C (dose: 25.0 mg/kg/injection, schedule: Q01DX009 (ip), vehicle: Klucel (hydroxypropylcellulose) (HPC)) was 99 % of control.

`CCOP(=S)(NC(=S)Nc1ccccc1NC(=S)NP(=S)(OCC)OCC)OCC` was tested, and the T/C (dose: 50.0 mg/kg/injection, schedule: Q01DX009 (ip), vehicle: saline) was 97 % of control, the T/C [3] was 94 % of control and the T/C [4] was 97 % of control.

`ClCCN(CCCl)/N=C/C=N/N(CCCl)CCCl` was tested, and the T/C (dose: 15.0 mg/kg/injection, schedule: Q01DX Z (ip), vehicle: carboxymethylcellulose (CMC)) was 93 % of control, the T/C (dose: 30.0 mg/kg/injection, schedule: Q01DX Z (ip), vehicle: carboxymethylcellulose (CMC)) was 98 % of control and the T/C (dose: 60.0 mg/kg/injection, schedule: Q01DX Z (ip), vehicle: carboxymethylcellulose (CMC)) was 115 % of control. For the same molecule, the T/C (dose: 120.0 mg/kg/injection, schedule: Q01DX Z (ip), vehicle: carboxymethylcellulose (CMC)) was 120 % of control.

For `CC(=O)NCCCCOc1ccc(N)cc1`, the T/C (dose: 100.0 mg/kg/injection, schedule: Q04DX003 (ip), vehicle: Klucel (hydroxypropylcellulose) (HPC)) was 106 % of control [survivor count not shown], the T/C (dose: 200.0 mg/kg/injection, schedule: Q04DX003 (ip), vehicle: Klucel (hydroxypropylcellulose) (HPC)) was 98 % of control [survivor count not shown] and the T/C (dose: 400.0 mg/kg/injection, schedule: Q04DX003 (ip), vehicle: Klucel (hydroxypropylcellulose) (HPC)) was 89 % of control [survivor count not shown].

In the case of `Cc1ccc(P(=O)(Cl)Cl)cc1`, the T/C (dose: 25.0 mg/kg/injection, schedule: Q01DX009 (ip), vehicle: saline with Tween-80) is reported as 88 % of control, the T/C (dose: 50.0 mg/kg/injection, schedule: Q01DX009 (ip), vehicle: saline with Tween-80) is reported as 95 % of control and the survivor count (dose: 100.0 mg/kg/injection, schedule: Q01DX009 (ip), vehicle: saline with Tween-80) is reported as 3 of 6. The T/C [1] was 86 % of control [5 of 6 alive], the survivor count [2] was 4 of 6 and the survivor count [5] was 0 of 6.

For `CN1CC2CC(C1)CN(C)C2.F[P-](F)(F)(F)(F)F`, the T/C [1] was 100 % of control, the T/C [2] was 100 % of control and the T/C [5] was 102 % of control [5 of 6 alive].

In the case of `N/C(=N\[N+](=O)[O-])N(CCCl)N=O`, the T/C (dose: 5.0 mg/kg/injection, schedule: Q01DX Z (ip), vehicle: carboxymethylcellulose (CMC)) is reported as 114 % of control, the T/C (dose: 10.0 mg/kg/injection, schedule: Q01DX Z (ip), vehicle: carboxymethylcellulose (CMC)) is reported as 90 % of control and the T/C (dose: 12.0 mg/kg/injection, schedule: Q01DX Z (ip), vehicle: carboxymethylcellulose (CMC)) is reported as 130 % of control. The T/C (dose: 18.0 mg/kg/injection, schedule: Q01DX Z (ip), vehicle: carboxymethylcellulose (CMC)) was 120 % of control, the T/C (dose: 20.0 mg/kg/injection, schedule: Q01DX Z (ip), vehicle: carboxymethylcellulose (CMC)) was 100 % of control and the T/C (dose: 27.0 mg/kg/injection, schedule: Q01DX Z (ip), vehicle: carboxymethylcellulose (CMC)) was 139 % of control. The T/C [6] was 91 % of control and the survivor count [6] was 6 of 6.

For `CCOC(=O)C1(c2ccccc2)CCNCC1`, the T/C [7] was 103 % of control, the survivor count [8] was 0 of 6 and the survivor count [9] was 0 of 6.

In the case of `CC(Sc1ccccc1[N+](=O)[O-])([N+](=O)[O-])[N+](=O)[O-]`, the T/C [7] is reported as 98 % of control, the T/C [8] is reported as 101 % of control and the T/C [9] is reported as 100 % of control [5 of 6 alive].

In the case of `CCOP(OCC)OCc1ccccc1`, the T/C [10] is reported as 124 % of control, the T/C [11] is reported as 97 % of control and the T/C [12] is reported as 109 % of control.

In the case of `CONC(=O)NP(=O)(Cl)Cl`, the T/C (dose: 50.0 mg/kg/injection, schedule: Q01DX001 (ip), vehicle: carboxymethylcellulose (CMC)) is reported as 98 % of control, the T/C [13] is reported as 98 % of control and the T/C [14] is reported as 93 % of control. The survivor count [15] was 1 of 4.

With `CCOP(=O)(NC(=S)NN1CCOCC1)OCC` the T/C [7] was 98 % of control, the T/C [3] was 100 and 108 % of control and the T/C (dose: 100.0 mg/kg/injection, schedule: Q04DX002 (ip), vehicle: saline) was 105 % of control. For the same molecule, the T/C [10] was 96 % of control, the T/C [8] was 92 % of control and the T/C [4] was 97 and 100 % of control. For the same molecule, the T/C (dose: 200.0 mg/kg/injection, schedule: Q04DX002 (ip), vehicle: saline) was 94 % of control, the T/C [11] was 102 % of control and the T/C [9] was 92 % of control. The T/C [16] was 91 and 94 % of control, the T/C (dose: 400.0 mg/kg/injection, schedule: Q04DX002 (ip), vehicle: saline) was 102 % of control and the T/C [12] was 98 % of control.

In the case of `Cn1/c(=N/Nc2c([N+](=O)[O-])cc([N+](=O)[O-])cc2[N+](=O)[O-])sc2ccccc21`, the T/C [3] is reported as 96 % of control [survivor count not shown], the T/C [4] is reported as 98 % of control [survivor count not shown] and the T/C [16] is reported as 98 % of control [survivor count not shown].

`O=[N+]([O-])c1cc2nc(Cl)[nH]c2cc1[N+](=O)[O-]` was tested, and the T/C (dose: 5.0 mg/kg/injection, schedule: Q01DX001 (ip), vehicle: carboxymethylcellulose (CMC)) was 102 % of control, the T/C (dose: 10.0 mg/kg/injection, schedule: Q01DX001 (ip), vehicle: carboxymethylcellulose (CMC)) was 104 % of control and the T/C (dose: 20.0 mg/kg/injection, schedule: Q01DX001 (ip), vehicle: carboxymethylcellulose (CMC)) was 96 % of control. For the same molecule, the T/C (dose: 40.0 mg/kg/injection, schedule: Q01DX001 (ip), vehicle: carboxymethylcellulose (CMC)) was 93 % of control, the T/C (dose: 80.0 mg/kg/injection, schedule: Q01DX001 (ip), vehicle: carboxymethylcellulose (CMC)) was 107 % of control and the T/C [13] was 102 % of control [3 of 4 alive]. For the same molecule, the survivor count [14] was 0 of 4 and the survivor count [15] was 0 of 4.

In the case of `COP1OC(C)C(C)(C)O1` (stereo not given), the T/C [7] is reported as 102 % of control, the T/C [8] is reported as 96 % of control and the T/C [9] is reported as 93 % of control.

In the case of `CCN(CC)CCOC(=O)C(O)(c1ccccc1)c1cc(C)cc(C)c1` (stereo not given), the T/C (dose: 75.0 mg/kg/injection, schedule: Q01DX001 (ip), vehicle: other) is reported as 98 % of control and the T/C (dose: 150.0 mg/kg/injection, schedule: Q01DX001 (ip), vehicle: other) is reported as 101 % of control.

In the case of `C(=C/[AsH](c1ccccc1)c1ccccc1)/[AsH](c1ccccc1)c1ccccc1.C(=C/[AsH](c1ccccc1)c1ccccc1)/[AsH](c1ccccc1)c1ccccc1.F[P-](F)(F)(F)(F)F.O=S(=O)([O-])[O-].[Rh+3]`, the T/C (dose: 50.0 mg/kg/injection, schedule: Q01DX001 (ip), vehicle: saline) is reported as 104 % of control, the T/C [7] is reported as 114 % of control [5 of 6 alive] and the T/C [8] is reported as 112 % of control [4 of 6 alive].

From PubChem BioAssay AID248 (DTP/NCI, 2004)
